# Measurements as given in publication PMC9603796.
# Protein sequences, listed by entry. Tags and fused reporters are not part of them.
# UniProt Q92769: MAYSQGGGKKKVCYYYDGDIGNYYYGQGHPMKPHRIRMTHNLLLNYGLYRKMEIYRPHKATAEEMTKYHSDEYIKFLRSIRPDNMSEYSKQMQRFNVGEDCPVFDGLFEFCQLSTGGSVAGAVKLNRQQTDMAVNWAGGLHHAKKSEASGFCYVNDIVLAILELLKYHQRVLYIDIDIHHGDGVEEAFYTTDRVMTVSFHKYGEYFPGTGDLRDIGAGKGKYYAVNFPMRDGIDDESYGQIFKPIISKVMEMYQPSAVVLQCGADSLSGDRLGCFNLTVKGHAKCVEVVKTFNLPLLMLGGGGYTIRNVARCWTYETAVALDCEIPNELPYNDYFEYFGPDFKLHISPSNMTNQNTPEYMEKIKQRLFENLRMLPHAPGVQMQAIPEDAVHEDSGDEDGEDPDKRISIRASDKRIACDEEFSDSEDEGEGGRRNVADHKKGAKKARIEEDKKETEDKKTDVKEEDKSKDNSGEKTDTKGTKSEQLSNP
# These are yes or no findings as the source states them, for the method shown. Binding seen in cells or lysates may run through a third protein. Some entries that bind do so weakly or less than the wild type. Sequences can lack the tags named with a protein.
# Columns and labels:
# V5-IRF3 = target: T1, V5-IRF3 (UniProt Q14653); test: co-IP
# T1 sequence: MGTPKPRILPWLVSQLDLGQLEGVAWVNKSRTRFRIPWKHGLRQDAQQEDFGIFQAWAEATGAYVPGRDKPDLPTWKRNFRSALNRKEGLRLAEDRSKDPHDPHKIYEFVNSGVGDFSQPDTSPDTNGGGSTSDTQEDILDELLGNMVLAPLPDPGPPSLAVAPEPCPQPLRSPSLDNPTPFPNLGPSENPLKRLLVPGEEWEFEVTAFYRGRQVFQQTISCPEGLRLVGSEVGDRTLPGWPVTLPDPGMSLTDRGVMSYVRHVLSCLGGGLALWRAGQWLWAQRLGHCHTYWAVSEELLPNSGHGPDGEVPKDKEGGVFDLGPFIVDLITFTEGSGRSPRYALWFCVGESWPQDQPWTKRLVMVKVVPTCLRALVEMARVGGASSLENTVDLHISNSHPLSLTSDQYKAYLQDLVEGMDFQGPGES
# FLAG-IRF3 = target: T2, FLAG-IRF3 (UniProt Q14653); test: co-IP
# T2 sequence: T1 sequence
substance,measurement,setting,value
"histone deacetylase 2 (HDAC2), endogenous (from UniProt Q92769 1-488)",binding,V5-IRF3,binds
same,binding,FLAG-IRF3,binds
